Values from PubChem BioAssay AID1159584 (Peter MacCallum Cancer Centre, 2016).
In all, the deposit lists about 18,000 reagents; shown is an unselected part. Not given: the amount of reagent, the time to read-out.

Test: 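Genes whose loss is lethal only together with E-cadherin loss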 (primary screen)
Cells: human MCF10A breast epithelial cells, parental and CDH1-null
Knock-down reagent: siRNA against human genes
Measurement: 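ATP luminescence (CellTiter-Glo) viability per line relative to mean mock wells over all plates, and the ratio of CDH1-null to parental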
Scale: CDH1-null / parental viability ratio: higher = CDH1-null cells survive relatively better than parental; CDH1-null viability vs mock: higher = more viable CDH1-null cells; parental viability vs mock: higher = more viable parental cells

Target gene | CDH1-null / parental viability ratio | CDH1-null viability vs mock (fraction of mock) | parental viability vs mock (fraction of mock)
VSIG8 (V-set and immunoglobulin domain containing 8) | 0.85 | 0.86 | 1.01
ATP5MK (ATP synthase membrane subunit k) | 1 | 0.9 | 0.9
STX19 (syntaxin 19) | 0.72 | 0.62 | 0.86
SLC1A6 | 0.86 | 0.62 | 0.72
IRGC (immunity related GTPase cinema) | 1 | 0.82 | 0.82
MAP2K5 (mitogen-activated protein kinase kinase 5) | 1 | 1.03 | 1.03
POMGNT1 | 1 | 0.76 | 0.76
ASIC3 (acid sensing ion channel subunit 3) | 1.57 | 1.16 | 0.74
SELENOT (selenoprotein T) | 1.02 | 0.44 | 0.43
RECQL5 (RecQ like helicase 5) | 0.87 | 0.78 | 0.9
MISO1 (mitochondrial inner membrane subdomain organizer 1) | 0.8 | 0.65 | 0.81
RBM23 (RNA binding motif protein 23) | 1.24 | 0.94 | 0.76
SLC22A3 | 0.86 | 0.54 | 0.63
TAOK1 (TAO kinase 1) | 1.06 | 1 | 0.94
SLC38A1 | 0.55 | 0.53 | 0.96
AGRP (agouti related neuropeptide) | 1.2 | 0.9 | 0.75
DDX39A (DExD-box helicase 39A) | 0.89 | 0.78 | 0.88
RAPGEF4 (Rap guanine nucleotide exchange factor 4) | 1.01 | 0.97 | 0.96
POLI (DNA polymerase iota) | 0.92 | 0.96 | 1.04
PREPL (prolyl endopeptidase like) | 1 | 0.82 | 0.82
STOX2 (storkhead box 2) | 0.87 | 0.78 | 0.9
SUCLG2 (succinate-CoA ligase GDP-forming subunit beta) | 0.67 | 0.64 | 0.96
PAX5 (paired box 5) | 0.98 | 0.96 | 0.98
MEX3D (mex-3 RNA binding family member D) | 0.94 | 0.89 | 0.95
ZNF577 (zinc finger protein 577) | 1.14 | 0.8 | 0.7
OSBPL11 (oxysterol binding protein like 11) | 1 | 0.57 | 0.57
GLRB (glycine receptor beta) | 1.24 | 0.99 | 0.8
LINC00471 (long independently transcribed non-coding RNA 471) | 0.87 | 0.66 | 0.76
ALPK3 (alpha kinase 3) | 0.9 | 0.72 | 0.8
CRISPLD2 (cysteine rich secretory protein LCCL domain containing 2) | 1.05 | 0.88 | 0.84
RBM47 (RNA binding motif protein 47) | 0.97 | 0.56 | 0.58
TRAF4 (TNF receptor associated factor 4) | 0.93 | 0.53 | 0.57
GRIK5 (glutamate ionotropic receptor kainate type subunit 5) | 1.14 | 0.96 | 0.84
CASKIN1 (CASK interacting protein 1) | 1.22 | 0.66 | 0.54
KIR2DL4 | 0.84 | 0.36 | 0.43
TFR2 (transferrin receptor 2) | 1.32 | 0.74 | 0.56
AGPAT3 (1-acylglycerol-3-phosphate O-acyltransferase 3) | 0.95 | 0.95 | 1
IQCB1 (IQ motif containing B1) | 1.76 | 0.6 | 0.34
CREBL2 (cAMP responsive element binding protein like 2) | 0.95 | 0.86 | 0.91
CALD1 (caldesmon 1) | 1.05 | 0.96 | 0.91
ANKS1B (ankyrin repeat and sterile alpha motif domain containing 1B) | 0.79 | 0.52 | 0.66
CDC25C (cell division cycle 25C) | 1.63 | 0.44 | 0.27
PKM (pyruvate kinase M1/2) | 0.98 | 0.8 | 0.82
AIRE (autoimmune regulator) | 0.87 | 0.52 | 0.6
ZPLD1 (zona pellucida like domain containing 1) | 1.11 | 1.04 | 0.94
SPN (sialophorin) | 0.78 | 0.7 | 0.9
